These are yes or no findings as the source states them, for the method shown. For some assays here: Binding calls can cover weak binding; strength is not graded here. Where a sequence is shown, tags or fusion partners need not be part of it. For some assays here: In cells and extracts the contact can be indirect.
B1: Shf:GFP (endogenous Shf tagged with GFP, shfGFP knock-in allele) (protein, UniProt Q9W3W5 31-456)
chain: RQQHHNRNNNNNNRRADSSSSEEGHGNTSDGLDNFADQDASFVGHGHQPRRGQRKKQQGGGGGGSGGGGGNGGGGGSRHNRNEESGISLWINEQQLKMLTALYFPQGYSERLYAIHNSRVTNDLRDTTLYNFLVIPSEVNYVNFTWKSGRRKYFYDFDRLQTMDESILKAPTLSIRKSGRIPQEQKNFSIFLPCTGNSSGTASFNVGLKIQTRHNKPLSGTPIRLNFKKECAHRGVYDIDASNPTSLTTLQECSLKCGKNGYCNEHHICKCNVGYTGQYCETAFCFPQCLNGGNCTAPSVCTCPEGYQGTQCEGGICKDKCLNGGKCIQKDKCQCSKGYYGLRCEYSKCVIPCKNEGRCIGNNLCRCPNGLRGDHCEIGRKQRSICKCRNGTCVSHKHCKCHPGFYGRHCNGRKRRHVHRNDDSKF
B2: Shf:V5 (wild-type Shifted/DmWif1 tagged with V5) (protein, UniProt Q9W3W5 31-456)
chain: RQQHHNRNNNNNNRRADSSSSEEGHGNTSDGLDNFADQDASFVGHGHQPRRGQRKKQQGGGGGGSGGGGGNGGGGGSRHNRNEESGISLWINEQQLKMLTALYFPQGYSERLYAIHNSRVTNDLRDTTLYNFLVIPSEVNYVNFTWKSGRRKYFYDFDRLQTMDESILKAPTLSIRKSGRIPQEQKNFSIFLPCTGNSSGTASFNVGLKIQTRHNKPLSGTPIRLNFKKECAHRGVYDIDASNPTSLTTLQECSLKCGKNGYCNEHHICKCNVGYTGQYCETAFCFPQCLNGGNCTAPSVCTCPEGYQGTQCEGGICKDKCLNGGKCIQKDKCQCSKGYYGLRCEYSKCVIPCKNEGRCIGNNLCRCPNGLRGDHCEIGRKQRSICKCRNGTCVSHKHCKCHPGFYGRHCNGRKRRHVHRNDDSKF

Amino acid sequences for entries named in this document (tags omitted). A change or cut given only in a name is not applied to a line headed by its entry.
UniProt Q9VM64: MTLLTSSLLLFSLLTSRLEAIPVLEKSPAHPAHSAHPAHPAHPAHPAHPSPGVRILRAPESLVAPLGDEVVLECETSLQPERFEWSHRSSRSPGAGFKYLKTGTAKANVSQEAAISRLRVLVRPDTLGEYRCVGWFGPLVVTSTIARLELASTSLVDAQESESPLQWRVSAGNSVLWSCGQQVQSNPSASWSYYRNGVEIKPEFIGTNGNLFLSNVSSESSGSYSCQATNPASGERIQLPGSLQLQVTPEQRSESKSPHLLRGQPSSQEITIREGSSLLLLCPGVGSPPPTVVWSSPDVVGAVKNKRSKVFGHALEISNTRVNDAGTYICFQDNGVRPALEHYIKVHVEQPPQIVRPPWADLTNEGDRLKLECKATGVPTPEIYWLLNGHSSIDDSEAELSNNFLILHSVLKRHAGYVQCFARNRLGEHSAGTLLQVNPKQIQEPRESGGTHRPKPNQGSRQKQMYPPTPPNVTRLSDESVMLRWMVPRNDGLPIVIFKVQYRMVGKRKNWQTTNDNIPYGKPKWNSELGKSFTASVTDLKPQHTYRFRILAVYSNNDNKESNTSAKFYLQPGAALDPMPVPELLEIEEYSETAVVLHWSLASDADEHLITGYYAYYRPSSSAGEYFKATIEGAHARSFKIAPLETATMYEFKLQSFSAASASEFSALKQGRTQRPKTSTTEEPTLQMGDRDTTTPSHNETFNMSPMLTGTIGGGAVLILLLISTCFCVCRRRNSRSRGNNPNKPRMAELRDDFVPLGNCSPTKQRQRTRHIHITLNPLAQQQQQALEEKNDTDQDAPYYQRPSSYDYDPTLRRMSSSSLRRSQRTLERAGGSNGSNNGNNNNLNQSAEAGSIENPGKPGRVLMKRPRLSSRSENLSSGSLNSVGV

Columns and labels:
[1] = molecular target: IhogFn1***:RFP (Ihog with three substitutions in the Fn1 domain that disrupt Hh binding) (Drosophila melanogaster) (UniProt Q9VM64); test: fluorescence imaging of tissue
[2] = molecular target: IhogΔIg:RFP (Ihog lacking the Ig domains, tagged with RFP) (Drosophila melanogaster) (UniProt Q9VM64); test: co-IP

Row | Binder | binding [1] | binding [2]
1 | B1 | binds | 
2 | B2 |  | no binding

— article doi:10.1101/2025.06.04.657875
